Assay results: PMC12558843
These are yes or no findings as the source states them, for the method shown. Binding seen in cells or lysates may run through a third protein. Some results given as binding are weak or reduced against the parent protein; the word gives no strength.

By UniProt entry, the sequences of proteins in these tests, tags left out.
UniProt P09429: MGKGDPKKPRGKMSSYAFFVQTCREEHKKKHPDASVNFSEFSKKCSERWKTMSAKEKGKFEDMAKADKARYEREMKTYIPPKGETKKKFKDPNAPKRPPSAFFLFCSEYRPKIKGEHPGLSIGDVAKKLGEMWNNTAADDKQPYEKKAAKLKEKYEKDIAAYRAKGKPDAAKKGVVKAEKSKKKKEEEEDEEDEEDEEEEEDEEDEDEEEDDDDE
UniProt Q14457: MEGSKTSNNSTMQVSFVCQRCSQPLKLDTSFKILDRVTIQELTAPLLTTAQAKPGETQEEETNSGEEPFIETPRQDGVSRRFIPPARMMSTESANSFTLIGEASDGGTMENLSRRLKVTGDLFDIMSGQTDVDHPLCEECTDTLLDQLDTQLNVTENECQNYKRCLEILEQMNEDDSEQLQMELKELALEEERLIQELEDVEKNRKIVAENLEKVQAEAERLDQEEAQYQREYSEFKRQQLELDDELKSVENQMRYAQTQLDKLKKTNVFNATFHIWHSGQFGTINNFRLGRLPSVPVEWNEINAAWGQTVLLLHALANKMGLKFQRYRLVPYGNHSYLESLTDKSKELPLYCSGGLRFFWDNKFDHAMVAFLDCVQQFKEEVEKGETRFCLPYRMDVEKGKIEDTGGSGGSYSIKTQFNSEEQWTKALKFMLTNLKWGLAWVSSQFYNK

Tests used:
[1] = biological target: High mobility group box 1 (HMGB1) (human (endogenous in HCT116 and HT29 CRC cells)) (UniProt P09429); experiment: proximity ligation; Duolink in situ PLA on fixed, permeabilised CRC cells with anti-rabbit PLUS and anti-mouse MINUS probes, confocal microscopy; cells with or without 4 Gy X-ray irradiation
[2] = biological target: High mobility group box 1 (HMGB1) (human (endogenous in HCT116 and HT29 CRC cells)) (UniProt P09429); experiment: co-IP; Co-IP kit (Absin abs955); CRC cell lysate incubated with mouse anti-HMGB1 antibody or mouse IgG overnight at 4°C, protein A + G agarose beads, blot for BECN1; cells with or without irradiation

binding [1]: binds
binding [2]: binds
Substance: Beclin 1 (BECN1) (from UniProt Q14457 1-450)
